Data published in patent US20120021061A1, “MEDICAL AND NUTRITIONAL FORMULATIONS” (Comvita New Zealand Limited, priority 2008, published 2012).
For at least one compound, name, drawing or mass did not settle the structure.

System: H. pylori SS1
Experiment: Viability of H. pylori SS1 after overnight incubation with MGO or honey (drop plate CFU)
Assay type: cell-based, Helicobacter pylori
Details: catalase treated
Method: The H. pylori SS1 strain was obtained and initially cultured on Campylobacter Selective Agar (CSA) plates and incubated at 37° C. under microaerobic conditions (10% Co2) for 48 h. Following culture, the isolates were checked for purity (microscopy, catalase and oxidase), after which SS1 was cultured in Brucella broth supplemented with 5% Fetal Bovine Serum and 1% Vitox under microaerobic conditions with shaking for 24 h. The effect of 1) methylglyoxal (MGO), density 1.17 g/ml, 2) Honey M1: Manuka honey O50336-10 (MGO content=0.593 mg/g), 3) Honey M2=Honey M1 adjusted to a pH of 9.0, 4) Honey M3=Comvita Wound Care Honey 18+ (MGO content=0.6 mg/g) and 5) Honey C: Control honey (100% Australian Honey, Leabrook Farms, Australia) on H. pylori was determined. MGO at concentrations of 1, 5, 10, 20, 50 and 100 mg/L were prepared by dissolving an appropriate amount of MGO in Brucella broth. To ensure an equivalent concentration of MGO in the Manuka honeys, the appropriate weight of honey (Honey M1 and Honey M2=6.75 g), (Honey M3=6.67 g) was measured out, after which an equal volume of Brucella broth at 37° C. was added to the honey and this was vortexed to aid mixing. Following vortexing, an equal volume of catalase solution (2 mg/ml) prepared from bovine liver was added to negate the effect of hydrogen peroxide, and this was again vortexed to aid mixing. The total volume was then adjusted to 40 ml using Brucella broth. […] The control Honey C was prepared in a similar fashion starting with an initial weight=6.71 g). To avoid contamination with lactic acid bacteria that are commonly present in honey (e.g. Leuconostoc citreum and Lactococcus garvieae), preparations of honey M1 and Honey C were filter sterilized through 0.22 µm pore size membrane filters prior to use in the in vitro assay. The Comvita wound care 18+ honey was not filter sterilised as this product undergoes sterilisation on manufacture. […] H. pylori were grown in broth culture overnight as described above. Following incubation, cells were washed once and resuspended in Brucella broth to an Optical Density (OD) 600 1.5. Ten pl of the microbial suspension was then inoculated into wells of a 96-well microtiter plate containing 200 pl of broth, supplemented with a range of concentrations of MGO (0, 1, 5, 10, 20, 50 and 100 mg/L), or an equivalent concentration of MGO contained in the Manuka honeys, or the same percentage of control honey. Each of the concentrations of MGO, MGO in the Manuka honeys and the control honey were tested in triplicate. Following addition of H. pylori to the microtiter plates, these were incubated under microaerobic conditions (10% CO2) overnight. Following incubation the number of viable colonies in the wells was assessed using the drop plate method. Following incubation the number of visible colonies on CSA agar plates were counted and the colony forming units (CFU)/ml calculated.

`CC(=O)C=O` [MGO (pH 9), methylglyoxal] was tested, and the “Helicobacter pylori viable count” value (MGO conc 1 mg/L, honey conc 0.5%) was 1.6 × 10^7 CFU/ml, the “Helicobacter pylori viable count” value (MGO conc 5 mg/L, honey conc 1.0%) was 1.4 × 10^7 CFU/ml and the “Helicobacter pylori viable count” value (MGO conc 10 mg/L, honey conc 2.1%) was 1.4 × 10^7 CFU/ml. The “Helicobacter pylori viable count” value (MGO conc 20 mg/L, honey conc 4.2%) was 1.2 × 10^7 CFU/ml, the “Helicobacter pylori viable count” value (MGO conc 50 mg/L, honey conc 8.4%) was 6.9 × 10^6 CFU/ml and the “Helicobacter pylori viable count” value (MGO conc 100 mg/L, honey conc 16.7%) was 1.7 × 10^6 CFU/ml.
